Results are given in words; binding and its absence hold for the method and conditions named. Binding seen in cells or lysates may run through a third protein. Binding can be weak; no strength is given.
B1: CstF64 (polyadenylation/cleavage stimulating factor), endogenous in HEK293T (protein, UniProt P33240 1-577)
chain: MAGLTVRDPAVDRSLRSVFVGNIPYEATEEQLKDIFSEVGPVVSFRLVYDRETGKPKGYGFCEYQDQETALSAMRNLNGREFSGRALRVDNAASEKNKEELKSLGTGAPVIESPYGETISPEDAPESISKAVASLPPEQMFELMKQMKLCVQNSPQEARNMLLQNPQLAYALLQAQVVMRIVDPEIALKILHRQTNIPTLIAGNPQPVHGAGPGSGSNVSMNQQNPQAPQAQSLGGMHVNGAPPLMQASMQGGVPAPGQMPAAVTGPGPGSLAPGGGMQAQVGMPGSGPVSMERGQVPMQDPRAAMQRGSLPANVPTPRGLLGDAPNDPRGGTLLSVTGEVEPRGYLGPPHQGPPMHHVPGHESRGPPPHELRGGPLPEPRPLMAEPRGPMLDQRGPPLDGRGGRDPRGIDARGMEARAMEARGLDARGLEARAMEARAMEARAMEARAMEARAMEVRGMEARGMDTRGPVPGPRGPIPSGMQGPSPINMGAVVPQGSRQVPVMQGTGMQGASIQGGSQPGGFSPGQNQVTPQDHEKAALIMQVLQLTADQIAMLPPEQRQSILILKEQIQKSTGAP
B2: hnRNPL, endogenous in HEK293T (protein, UniProt P14866 1-589)
chain: MSRRLLPRAEKRRRRLEQRQQPDEQRRRSGAMVKMAAAGGGGGGGRYYGGGSEGGRAPKRLKTDNAGDQHGGGGGGGGGAGAAGGGGGGENYDDPHKTPASPVVHIRGLIDGVVEADLVEALQEFGPISYVVVMPKKRQALVEFEDVLGACNAVNYAADNQIYIAGHPAFVNYSTSQKISRPGDSDDSRSVNSVLLFTILNPIYSITTDVLYTICNPCGPVQRIVIFRKNGVQAMVEFDSVQSAQRAKASLNGADIYSGCCTLKIEYAKPTRLNVFKNDQDTWDYTNPNLSGQGDPGSNPNKRQRQPPLLGDHPAEYGGPHGGYHSHYHDEGYGPPPPHYEGRRMGPPVGGHRRGPSRYGPQYGHPPPPPPPPEYGPHADSPVLMVYGLDQSKMNCDRVFNVFCLYGNVEKVKFMKSKPGAAMVEMADGYAVDRAITHLNNNFMFGQKLNVCVSKQPAIMPGQSYGLEDGSCSYKDFSESRNNRFSTPEQAAKNRIQHPSNVLHFFNAPLEVTEENFFEICDELGVKRPSSVKVFSGKSERSSSGLLEWESKSDALETLGFLNHYQMKNPNGPYPYTLKLCFSTAQHAS

The chains behind the UniProt entries cited, without tags or fusion partners. Where a name states a change or a piece, a line headed by the entry shows the natural chain unless it says otherwise.
UniProt Q8BIQ5: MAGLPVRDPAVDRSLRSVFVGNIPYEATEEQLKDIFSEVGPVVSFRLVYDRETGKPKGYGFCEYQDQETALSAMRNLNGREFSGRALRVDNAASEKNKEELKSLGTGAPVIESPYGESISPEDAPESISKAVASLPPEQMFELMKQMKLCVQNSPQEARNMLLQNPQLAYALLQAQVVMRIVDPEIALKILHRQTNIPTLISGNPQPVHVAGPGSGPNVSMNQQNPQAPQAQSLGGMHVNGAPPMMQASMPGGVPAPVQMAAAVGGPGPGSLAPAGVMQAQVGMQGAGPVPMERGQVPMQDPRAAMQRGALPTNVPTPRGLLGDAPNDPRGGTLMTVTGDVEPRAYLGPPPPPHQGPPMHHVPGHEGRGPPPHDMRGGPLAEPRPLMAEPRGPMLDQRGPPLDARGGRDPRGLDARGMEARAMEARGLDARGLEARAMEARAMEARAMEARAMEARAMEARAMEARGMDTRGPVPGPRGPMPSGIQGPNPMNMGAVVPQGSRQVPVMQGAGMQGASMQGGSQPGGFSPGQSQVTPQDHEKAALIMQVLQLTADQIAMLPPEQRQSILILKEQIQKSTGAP

Legend:
Test in all cases: co-IP; Flag-tagged Hnrnpl or Cstf2 constructs (WT or mutant) expressed in HEK293T, harvested 48 h after transfection; clarified lysate with protease and RNase inhibitors; Flag agarose beads, 4°C, 4 h to overnight; mild wash buffer; western blot
[1] = biological target: hnRNPL with deletion of vRRM2 (UniProt Q8R081)
[2] = biological target: hnRNPL with deletion of vRRM3 (UniProt Q8R081)
[3] = biological target: RRM-deleted CstF64 mutant, C-terminally Flag-tagged (mouse) (UniProt Q8BIQ5)

| Binder | binding [1] | binding [2] | binding [3] |
| --- | --- | --- | --- |
| B1 | binds | binds | – |
| B2 | – | – | binds |
